{"source": "PubChem BioAssay AID651640", "about": "(Broad Institute, 2012)", "note": "Several values for one entry are separate records, joined by “and”; a condition that tells them apart may be missing. Equal values may be shown once. Hit rate of the full screen: of about 350,000 compounds, about 6,000 (1.7%) were called active. Inconclusive results, whose numbers are uncertain, are shown with a selection of clear calls. Rule as the data show it: active = CPE inhibition above about 20% (passing the limit was not always enough); inconclusive = no clear call, values can overlap the other calls; tested in BHK-21 cells."}
{"assay": "protection of cells from dengue 2 killing – plate reader, single concentration, primary screen (AID 651640);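 also: 0% = median of neutral control wells and 100% = median of positive control wells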", "conditions": "DENV2-infected cells, cytopathic effect rescue, at 9.99 µM, stronger effect = higher value"}
{"smiles": "O=[N+]([O-])c1cccc(C=Nc2cc3c(cc2Br)OCCO3)c1", "CPE inhibition": "active: 44.3%"}
{"smiles": "C[C@H]1CN([C@@H](C)CO)C(=O)c2cc(NS(=O)(=O)c3ccccc3)ccc2O[C@@H]1CN(C)Cc1ccc2c(c1)OCO2", "CPE inhibition": "inactive: 3.8%"}
{"smiles": "Cc1nc2scc(C)n2c(=O)c1S(=O)(=O)NCCc1ccccc1", "CPE inhibition": "inconclusive: 20.8%"}
{"smiles": "CSc1ccc(S(=O)(=O)NC2CC3CCC2C3)cc1", "note": "(stereo unspecified)", "CPE inhibition": "active: 37.3%"}
{"smiles": "CCCC#Cc1ccc([C@@H]2[C@@H](CO)N3C(=O)CN(C(=O)c4ccncc4)C[C@H]23)cc1", "CPE inhibition": "inactive: 2.41%"}
{"smiles": "O=C(Cc1ccccc1)N1C[C@H]2[C@@H](c3ccccc31)[C@@H](CO)N2C(=O)C1CC1", "CPE inhibition": "active: 24.9%"}
{"smiles": "O=C(C1CCCC1)N1CC[C@@H]2[C@@H](CO)Nc3ccc(C#Cc4ccc(F)cc4)cc3[C@@H]21", "CPE inhibition": "inactive: 4.24%"}
{"smiles": "COc1cccc(S(=O)(=O)Nc2ccc3c(c2)[C@H]2C[C@@H](CC(=O)NCc4ccccc4F)O[C@@H](CO)[C@H]2O3)c1", "CPE inhibition": "inconclusive: 46.8%"}
{"smiles": "Oc1ccc2ccccc2c1Br", "CPE inhibition": "inconclusive: 20.8%"}
{"smiles": "O=C(CCc1ccccc1)Oc1ccccc1[N+](=O)[O-]", "CPE inhibition": "inconclusive: 33.2%"}
{"smiles": "CN(C)CCN1CCN([C@H]2CS(=O)(=O)N[C@@H]2COCc2ccccc2)CC1", "CPE inhibition": "inconclusive: 22.6%"}
{"smiles": "O=C(COC(=O)c1nc(-c2ccccc2)n(-c2cccc(C(F)(F)F)c2)n1)NCc1cccs1", "CPE inhibition": "inconclusive: 65.7%"}
{"smiles": "Cc1cccc(S(=O)(=O)N2C[C@@H]3[C@H](c4ccccc42)[C@H](CO)N3Cc2cccnc2)c1", "CPE inhibition": "inactive: -8.44%"}
{"smiles": "C[C@H](CO)N1C[C@H](C)[C@H](CN(C)Cc2cccc3c2OCCCO3)OCc2cn(nn2)CCCC1=O", "CPE inhibition": "inconclusive: 27%"}
{"smiles": "CCn1c(SCc2nc(-c3ccc(OC)c(OC)c3)no2)nnc1-c1cccs1", "CPE inhibition": "inactive: 4.58%"}
{"smiles": "COc1ccc(S(=O)(=O)N2CCOCC2)cc1NC(=O)CN1CCCc2ccccc21", "CPE inhibition": "inconclusive: 27%"}
{"smiles": "C[C@@H]1CN([C@H](C)CO)C(=O)c2cc(NS(=O)(=O)c3cn(C)cn3)ccc2O[C@@H](C)CCCCO[C@H]1CN(C)CC1CCCCC1", "CPE inhibition": "inactive: 19.6%"}
{"smiles": "CCCC1NC(=O)c2cc3ccccc3cc2-n2c1nc1ccc(F)cc1c2=O", "note": "(stereo unspecified)", "CPE inhibition": "active: 67.2%"}
{"smiles": "CC(C)NC(=O)Nc1cccc2c1O[C@@H](CN(C)Cc1ccncc1)[C@@H](C)CN([C@@H](C)CO)C2=O", "CPE inhibition": "inconclusive: 44.1%"}
{"smiles": "CC1C(=O)N2CCCc3cc(NC(=O)COc4ccccc4)cc1c32", "note": "(stereo unspecified)", "CPE inhibition": "inconclusive: 24%"}
{"smiles": "Cc1nn(CC(=O)OCCOc2ccc(Br)cc2)c(C)c1[N+](=O)[O-]", "CPE inhibition": "inconclusive: 42.6%"}
{"smiles": "CCCNC(=O)N1CC2(CCN(CC3CCCCC3)CC2)c2c([nH]c3cc(OC)ccc23)[C@H]1CO", "CPE inhibition": "inconclusive: 27.6%"}
{"smiles": "Cc1ccc2c(c1)C(c1ccccc1)N(C(=O)c1c(F)cccc1Cl)CC(=O)N2", "note": "(stereo unspecified)", "CPE inhibition": "inactive: 1.25%"}
{"smiles": "COc1ccc(-c2ccc(C3[C@@H]4CN(S(=O)(=O)c5ccccc5C)C[C@H]3N4)cc2)cc1", "note": "(stereo partly specified)", "CPE inhibition": "inconclusive: 33.1% and active: 31.3%"}
{"smiles": "Cn1ccnc1C(OC(=O)c1ccc(Cl)cc1)C(F)(F)F", "note": "(stereo unspecified)", "CPE inhibition": "inactive: -0.256%"}
{"smiles": "Cc1cccc(S(=O)(=O)N2C[C@@H](O)COC[C@@H]3O[C@@H](CC(=O)NCc4ccc5c(c4)OCO5)CC[C@H]32)c1", "CPE inhibition": "inactive: -3.56%"}
{"smiles": "CC(=O)N1CC[C@@H]2[C@H]1c1cc(-c3ccc(C#N)cc3)ccc1N(C)[C@H]2CO", "CPE inhibition": "inactive: -5.18%"}
{"smiles": "O=C(Cc1ccccn1)N[C@H]1C=C[C@H](CC(=O)N2CCCCC2)O[C@@H]1CO", "CPE inhibition": "inconclusive: 23.1%"}
{"smiles": "CN1c2ccc(-c3ccc(C#N)cc3)cc2[C@@H]2[C@@H](CCN2C(=O)CC2CC2)[C@@H]1CO", "CPE inhibition": "inconclusive: 31.7%"}
{"smiles": "CN(CC(=O)Nc1ccccc1Cl)C(=O)Cn1cc(C(F)(F)F)cc(Cl)c1=O", "CPE inhibition": "inconclusive: 35.2%"}
{"smiles": "COc1ccccc1CNC(=O)CN1C(=O)COc2ccc(S(=O)(=O)NC3CCCC3)cc21", "CPE inhibition": "inconclusive: 23.4%"}
{"smiles": "COc1cccc(OCCOc2ccc(/C=C3/SC(=S)NC3=O)cc2)c1", "CPE inhibition": "inconclusive: 27.5%"}
{"smiles": "Cc1csc(NC(=O)CSc2ccc([N+](=O)[O-])cn2)n1", "CPE inhibition": "inconclusive: 53.1%"}
{"smiles": "CC(=O)c1cccc(S(=O)(=O)Nc2ccc3nc(C)sc3c2)c1", "CPE inhibition": "inconclusive: 21.9%"}
{"smiles": "COc1ccccc1NS(=O)(=O)c1cc(NC(=O)c2cc(=O)[nH]c3ccccc23)ccc1N1CCOCC1", "CPE inhibition": "inconclusive: 28.2%"}
{"smiles": "CCN(CC(=O)Nc1c(F)cccc1F)C(=O)C1CCN(S(=O)(=O)c2ccc(F)cc2)CC1", "CPE inhibition": "active: 28.4%"}
